PubChem BioAssay AID1259308 – NCATS | 2017

Screen: 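Genes whose loss raises luciferase production in HEK293 cells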 (primary screen)
Cells: human HEK293 embryonic kidney cells stably expressing firefly luciferase (HEK-CMV-Luc2-Hygro)
Knock-down reagent: single siRNA against human genes, 0.8 pmol siRNA per well
Time to read-out: 72 h
Detection: 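Reporter luminescence and viable-cell signal on separate replicate plates, given as percent of non-targeting control and median/MAD z-scores, plus per-cell luciferase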
Direction: total luciferase, z-score and total luciferase, % of control: higher = more reporter protein produced; luciferase per cell, z-score: higher = more reporter output per viable cell
Call rule: 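An siRNA counts as active if its total luciferase robust z-score exceeds 3; genes with two or more such siRNAs out of three were retested with fresh siRNAs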
Calls: active = raised luciferase; inactive = no rise
The deposit covers about 59,000 reagents; below is an unselected part. In the full data, about 1,510 (2.6%) were called active. 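Calls use total luciferase alone and ignore viability, so some active siRNAs may act by altering cell number.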 Entries without a mark were called inactive. The numbers tell different reagents against one gene apart. Further read-outs or replicates are left out here. No sequences are given here.

gene | siRNA no. | total luciferase, z-score | total luciferase, % of control | luciferase per cell, z-score
ESCO1 | 1 | -1.89 | 44.4 | -0.286
ESCO1 | 2 | 1.17 | 105 | 0.358
ESCO1 | 3 | -0.758 | 66.8 | -0.517
TFB1M | 1 | 2.42 | 130 | 2.07
TFB1M | 2 | -1.42 | 53.7 | -0.787
TFB1M | 3 | -0.905 | 63.9 | -1.54
BTG1 | 1 | -1.83 | 45.5 | -0.251
BTG1 | 2 | -0.994 | 62.1 | 0.0289
BTG1 | 3 | 0.691 | 95.6 | 0.898
BTBD3 | 1 | 0.893 | 99.6 | 0.691
BTBD3 | 2 | 0.453 | 90.9 | 0.622
BTBD3 | 3 | -0.0158 | 81.6 | 0.279
DSCR9 | 1 | -1.18 | 58.4 | -1.57
DSCR9 | 2 | -1.91 | 43.9 | -1.56
DSCR9 | 3 | -0.159 | 78.7 | -0.414
CEP85 | 1 | -0.69 | 68.2 | 0.475
CEP85 | 2 | 0.48 | 91.4 | 0.228
CEP85 | 3 | -1.17 | 58.7 | -0.563
HEATR6 | 1 | 2.85 | 139 | 3.18
HEATR6 | 2 | -0.0477 | 80.9 | -0.168
HEATR6 | 3 | 1.84 | 119 | 1.48
LRRC42 | 1 | 4.56 (active) | 173 | 3.33
LRRC42 | 2 | 1.71 | 116 | 1.95
LRRC42 | 3 | -0.638 | 69.2 | -0.535
ODC1 | 1 | -2.69 | 28.4 | -2.46
ODC1 | 2 | -3.11 | 20 | -3.11
ODC1 | 3 | -3.21 | 18 | -3.88
SEC23IP | 1 | 0.598 | 93.8 | 0.229
SEC23IP | 2 | -1.43 | 53.5 | -0.612
SEC23IP | 3 | -0.731 | 67.4 | -0.895
ARID5A | 1 | -2 | 42 | -0.517
ARID5A | 2 | -0.793 | 66.1 | -1.31
ARID5A | 3 | 0.707 | 95.9 | 1.98
SLC11A1 | 1 | -0.739 | 67.2 | -1.55
SLC11A1 | 2 | 2.6 | 134 | 1.12
SLC11A1 | 3 | 3.74 (active) | 156 | 2.82
HPS3 | 1 | 1.01 | 102 | 1.05
HPS3 | 2 | -0.806 | 65.9 | -0.629
HPS3 | 3 | 0.63 | 94.4 | 1.09
TLR2 | 1 | 0.157 | 85 | 0.168
TLR2 | 2 | -0.794 | 66.1 | -1.05
TLR2 | 3 | 0.306 | 88 | 0.963
INO80D | 1 | 0.102 | 83.9 | -0.33
INO80D | 2 | 0.00603 | 82 | -0.473
INO80D | 3 | -1.51 | 51.9 | -1.97
ABHD1 | 1 | -1.25 | 57 | -1.85
ABHD1 | 2 | 0.563 | 93.1 | 0.219
ABHD1 | 3 | -0.514 | 71.7 | -0.501
NPHP1 | 1 | -0.212 | 77.7 | -0.0499
NPHP1 | 2 | -0.791 | 66.2 | -0.807
NPHP1 | 3 | -0.0586 | 80.7 | 0.273
SMAD4 | 1 | 0.41 | 90 | 0.205
SMAD4 | 2 | 0.646 | 94.7 | -0.329
SMAD4 | 3 | -0.58 | 70.3 | 0.452
CST5 | 1 | 0.128 | 84.4 | -0.48
CST5 | 2 | 0.186 | 85.6 | -0.345
CST5 | 3 | 0.118 | 84.2 | -0.443
SLC17A7 | 1 | -1.17 | 58.6 | -0.687
SLC17A7 | 2 | -0.274 | 76.4 | -0.566
SLC17A7 | 3 | 2.34 | 128 | 2.54
DSC3 | 1 | 0.612 | 94.1 | -0.0358
DSC3 | 2 | 3.76 (active) | 157 | 2.51
DSC3 | 3 | -0.0346 | 81.2 | -0.0946
KIRREL2 | 1 | 1.21 | 106 | 0.431
KIRREL2 | 2 | 0.021 | 82.3 | 0.525
KIRREL2 | 3 | 1.61 | 114 | 1.04
ALOX15 | 1 | -1.17 | 58.6 | -1.66
ALOX15 | 2 | 0.682 | 95.5 | 0.296
ALOX15 | 3 | 0.266 | 87.2 | -0.0865
GARIN6 | 1 | 1.62 | 114 | 2.5
GARIN6 | 2 | -1.27 | 56.6 | 0.729
GARIN6 | 3 | 0.014 | 82.2 | -0.321
CUL9 | 1 | -0.0548 | 80.8 | -0.723
CUL9 | 2 | 0.581 | 93.4 | 0.261
CUL9 | 3 | -0.912 | 63.7 | -1.27

4 entries from above, reduced to “total luciferase, z-score”.
DSCR9 #1: -1.18
DSCR9 #2: -1.91
DSCR9 #3: -0.159
CEP85 #1: -0.69
